Reference: article PMC6985574
These are yes or no findings as the source states them, for the method shown. Some binding calls cover weakened binding; strength is not graded here.

Tests used:
[1] = target: Arabidopsis OR protein (AtOR) (Arabidopsis) (UniProt Q9FKF4); experiment: two-hybrid; yeast split-ubiquitin system, β-galactosidase (lacZ reporter) activity by oNPG assay, relative to OD600, biological triplicates, cultures at 28°C
[2] = target: Arabidopsis OR protein (AtOR) (Arabidopsis) (UniProt Q9FKF4); experiment: two-hybrid; yeast split-ubiquitin system, growth test: Nub fusions (N-terminal) mated with Cub fusions (C-terminal); diploids spotted on fully selective medium (-LWAH) supplemented with 150 µM and 1 mM Met to repress the Cub fusion

B1: Arabidopsis OR protein (AtOR) (protein, UniProt Q9FKF4 56-307)
chain: ADKFASGFCIIEGPETVQDFAKMQLQEIQDNIRSRRNKIFLHMEEVRRLRIQQRIKNTELGIINEEQEHELPNFPSFIPFLPPLTAANLKVYYATCFSLIAGIILFGGLLAPTLELKLGIGGTSYADFIQSLHLPMQLSQVDPIVASFSGGAVGVISALMVVEVNNVKQQEHKRCKYCLGTGYLACARCSSTGALVLTEPVSAIAGGNHSLSPPKTERCSNCSGAGKVMCPTCLCTGMAMASEHDPRIDPFD
Q: Which results are given for B1?
A: binding [1]: binds; binding [2]: binds
